# Experimental data: article PMC3247260
# Chains of the proteins cited; added tags and fusions are not shown. Residues count along the entry.
# UniProt P61956: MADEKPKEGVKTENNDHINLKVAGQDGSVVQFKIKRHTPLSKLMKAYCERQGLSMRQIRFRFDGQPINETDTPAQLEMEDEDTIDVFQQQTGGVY
# UniProt P63165, residues 1-97: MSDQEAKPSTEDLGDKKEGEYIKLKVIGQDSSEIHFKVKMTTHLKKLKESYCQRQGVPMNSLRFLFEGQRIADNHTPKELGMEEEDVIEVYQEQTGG
# No constants are given. Whether binding was seen depends on the method and setting. For part of these data: In cells and extracts the contact can be indirect. For part of these data: Where a sequence is shown, tags or fusion partners need not be part of it.
# Columns and labels:
# [1] = biological target: T1, FLAG-tagged USP13-C345A (catalytically inactive form) (human) (UniProt Q92995); test: co-IP; HEK 293T cells transfected with FLAG-tagged USP13; IP: anti-FLAG antibody; IB: anti-Ub, anti-ISG15, anti-SUMO1 and anti-SUMO2 antibodies; 50% lysates as input
# T1 sequence: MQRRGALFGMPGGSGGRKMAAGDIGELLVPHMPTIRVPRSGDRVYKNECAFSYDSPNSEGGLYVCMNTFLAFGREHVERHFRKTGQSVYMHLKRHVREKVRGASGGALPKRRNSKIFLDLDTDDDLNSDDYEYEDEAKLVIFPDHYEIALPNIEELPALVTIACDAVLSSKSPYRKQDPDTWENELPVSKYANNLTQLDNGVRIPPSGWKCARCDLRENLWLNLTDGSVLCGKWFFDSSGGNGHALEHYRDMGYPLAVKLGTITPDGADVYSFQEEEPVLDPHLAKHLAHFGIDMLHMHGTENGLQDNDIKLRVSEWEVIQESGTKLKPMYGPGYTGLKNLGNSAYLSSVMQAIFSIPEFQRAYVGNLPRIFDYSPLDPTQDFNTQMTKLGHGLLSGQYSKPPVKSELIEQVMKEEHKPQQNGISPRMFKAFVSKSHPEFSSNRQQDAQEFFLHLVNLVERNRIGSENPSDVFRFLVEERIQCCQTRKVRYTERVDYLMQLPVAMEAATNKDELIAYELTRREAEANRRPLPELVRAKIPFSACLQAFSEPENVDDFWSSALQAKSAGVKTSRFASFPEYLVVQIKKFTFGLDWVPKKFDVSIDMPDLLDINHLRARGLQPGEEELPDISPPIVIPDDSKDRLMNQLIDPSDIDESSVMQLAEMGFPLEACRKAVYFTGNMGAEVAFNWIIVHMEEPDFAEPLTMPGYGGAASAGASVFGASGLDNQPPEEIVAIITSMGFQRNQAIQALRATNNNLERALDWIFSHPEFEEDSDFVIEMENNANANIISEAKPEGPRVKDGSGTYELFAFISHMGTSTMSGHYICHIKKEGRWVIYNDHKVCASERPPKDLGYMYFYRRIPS
# GST-fused SUMO2 = GST-fused SUMO2 (UniProt P61956); test: pull-down; GST-fused Ub, ISG15, SUMO1 or SUMO2 loaded on glutathione agarose, USP13 or USP13-UBA12 (~100 µM) added; 1-hr incubation, washed three times, eluted by GSH buffer; SDS-PAGE with Coomassie blue staining; both purified
# GST-fused SUMO1 = GST-fused SUMO1 (UniProt P63165); test: as above
binding [1],binding (GST-fused SUMO2),binding (GST-fused SUMO1),Substance
no binding,–,–,SUMO1 of HEK 293T cells (from UniProt P63165 1-97)
–,no binding (tested: ~100 µM USP13-UBA12),no binding (tested: ~100 µM USP13-UBA12),"tandem UBA domains of USP13 (USP13-UBA12, residues 652-776) (from UniProt Q92995 652-776) (domain or fragment)"
